# Source: PubChem BioAssay AID504808 (Drosophila RNAi Screening Center, 2011)
# Purpose: 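Fly genes required to hold E2F transcription in check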 (primary screen)
# Cell system: Drosophila S2 cells
# Knock-down reagent: long dsRNA against Drosophila genes
# Detection: 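Firefly luciferase driven by E2F sites, normalised to Renilla luciferase on the same minimal promoter, measured by plate reader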
# Direction: E2F firefly: higher = more E2F reporter activity; Renilla normaliser: higher = more normaliser reporter signal
# Hit rule: 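Called active if the normalised E2F reporter went up by over 50%; the cutoff is arbitrary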
# The screen tested about 21,000 reagents; below is a random part of those that have a named target and a result. Over the whole deposit, 18 (0.084%) were called active. 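Raw counts without plate normalisation, one of two replicates; the ratio scores behind the calls were not deposited.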 Not stated in the record: the amount of reagent, the time to read-out.
target,DRSC id,"E2F firefly, rep 1","Renilla normaliser, rep 1",outcome
CG15756 (GeneID 32308),DRSC19721,63864,4336,inactive
Sr-CIV (GeneID 33576),DRSC00575,1.39e5,5013,inactive
CG14113 (GeneID 50287),DRSC10116,1.27e5,7042,inactive
gwl (GeneID 45969),DRSC16305,79836,3341,inactive
sbm (GeneID 32397),DRSC20185,2.27e5,5780,inactive
CG13288 (GeneID 38665),DRSC09962,92939,3398,inactive
hay (GeneID 39202),DRSC11354,70115,3437,inactive
CG4250 (GeneID 37599),DRSC04455,1.17e5,4748,inactive
CG17163 (GeneID 3354988),DRSC20901,1.43e5,6180,inactive
MED16 (GeneID 37535),DRSC04506,1.02e5,4132,inactive
CG1847 (GeneID 32144),DRSC19810,8315,736,inactive
CG7402 (GeneID 39994),DRSC10839,1.66e5,8678,inactive
Tep1 (GeneID 34937),DRSC03450,1.00e5,4811,inactive
NT1 (GeneID 38558),DRSC08530,83206,3486,inactive
Sb (GeneID 41958),DRSC16851,1.18e5,7016,inactive
Cpr62Ba (GeneID 38239),DRSC08403,95876,4191,inactive
SLC5A11 (GeneID 34117),DRSC03088,90843,3977,inactive
Cpr78Cc (GeneID 40355),DRSC11846,1.43e5,7657,inactive
Tom (GeneID 39619),DRSC11306,76333,3314,inactive
lost (GeneID 40559),DRSC12002,98488,4292,inactive
lost (GeneID 40559),DRSC12234,92181,3218,inactive
CG14857 (GeneID 41791),DRSC14981,1.22e5,6832,inactive
CG13390 (GeneID 34154),DRSC02261,1.47e5,5974,inactive
scf (GeneID 38145),DRSC08735,93888,4562,inactive
Eig71Ec (GeneID 39703),DRSC11150,1.69e5,7956,inactive
kat-60L1 (GeneID 40715),DRSC12184,68734,3601,inactive
Hsl (GeneID 37289),DRSC06028,73455,3367,inactive
dl (GeneID 35047),DRSC03520,91588,3947,inactive
dl (GeneID 35047),DRSC03521,1.10e5,4579,inactive
CG33310 (GeneID 2768910),DRSC01897,1.04e5,4656,inactive
AstCC (GeneID 34538),DRSC02404,1.44e5,5136,inactive
CG32137 (GeneID 39537),DRSC10271,1.17e5,5342,inactive
CG32137 (GeneID 39537),DRSC10272,94816,5429,inactive
eIF3b (GeneID 36981),DRSC06900,1.03e5,4816,inactive
